# Data published in PMC10647616, “Side-Chain Modified [^99mTc]Tc-DT1 Mimics: A Comparative Study in NTS1R-Positive Models” (International Journal of Molecular Sciences, 2023).
# “Also recorded” adds a separate entry of the source.
# System: AsPC-1 xenografts
# Assay: SPECT/CT imaging of SCID mice bearing AsPC-1 xenografts
# Type: in vivo, mouse
# Details: 4 h pi, radioligand alone
substance,measurement,value
"[^99mTc]Tc-DT1: Tc-99m labeled DT1 (N4-Gly-Arg-Arg-Pro-Tyr-Ile-Leu-OH), unmodified reference radioligand (GRRPYIL; N4 chelator, 99mTc label, C-terminal OH; printed: Gly-Arg-Arg-Pro-Tyr-Ile-Leu-)",visualization of the implanted AsPC-1 tumor on SPECT/CT,failed to clearly visualize the implanted tumor; also recorded: failed to effectively target the implanted tumor
